For 56 molecules, cell number change and AC50 results are on record in PubChem BioAssay AID2685 (National Center for Advancing Translational Sciences (NCATS), 2010).

Some of the results follow. The main result of the screen is listed elsewhere. These columns were measured beside it and carry no call. Most of these compounds were active or inconclusive in the main read-out, so they are no random draw. Words in brackets tell the shape of the fitted curve; partial curves, single points and poor fits give uncertain potencies.

The assay in a line: qHTS Assay for Lipid Storage Modulators in Drosophila S3 Cells.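 As to cell number change: cells counted by Cell Tracker Red CMTPX staining in the red channel.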 The conditions noted are these: BODIPY lipid droplet fluorescence, 18-24 h; for cell number change: measured here: cell count max response, cells fed with added oleic acid. The procedure, abridged: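 Drosophila S3 cells got compounds at several concentrations plus oleic acid (400 uM solution). Laser-scanning cytometry with 488 nm excitation read lipid droplets at 500-530 nm and cells at 575-640 nm. Percent activity was relative to 20 uM Triacsin C.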
Background: Quantitative high-throughput screening tests each substance at several concentrations.

Setting [1] is: measured here: cell number channel AC50, cells fed with added oleic acid.
Where [2] appears, read: measured here: lipid fluorescence (Fed channel) AC50, cells fed with added oleic acid.

For `NC(=O)CC(NC(=O)Cc1ccc(Br)cc1)c1ccc(NCc2ccc(F)cc2)c([N+](=O)[O-])c1` (stereo not given), the cell number change is 12.5%.

One may read the AC50 as the midpoint of the concentration-response curve, whichever way the signal moves. High values mean activity only at high concentration, low ones activity at low concentration. For the molecule `CC(=O)c1cnn(-c2nc3c(C)cccc3s2)c1C`, under setting [1], the AC50 was 3.66 µM [rising, single point].

For `Cc1nn(-c2ccccc2)c(C)c1C(=O)N1CCN(S(=O)(=O)c2ccccc2)CC1`, the cell number change is -15.2%. Further, the concentration at half-maximal activity (AC50) under setting [2] is 0.0259 µM [falling, full curve, poor fit].

For the molecule `COc1ccc(CCN2CCCn3c2nc2c3c(=O)n(C)c(=O)n2C)cc1OC`, the cell number change was 4.17%. Also, under setting [2], the concentration at half-maximal activity (AC50) is 3.66 µM [rising, full curve].

For `CCc1cc2cc3c(cc2nc1SCC(=O)Nc1c[nH]c(=O)[nH]c1=O)OCO3`, the cell number change was determined as 39.2%. Also, the AC50 under setting [1] is 20.6 µM [rising, partial curve, poor fit]. Also, the half-maximal activity concentration (AC50) under setting [2] was 9.2 µM [rising, partial curve, poor fit].

In the case of `Cc1cc(C(=O)CN2C(=O)C(=O)N(Cc3ccco3)C2=O)c(C)n1CCc1ccc(F)cc1`, the cell number change was 31.3%. Under setting [1], the AC50 is 29.1 µM [rising, single point]. The AC50 under setting [2] is 29.1 µM [rising, single point].

Regarding `COc1ccc(NC(=O)C(Cc2ccccc2)n2cccc2)c(OC)c1` (stereo not given), the cell number change was found to be 13.5%. Further, the AC50 under setting [1] was 0.164 µM [rising, partial curve, poor fit]. The AC50 under setting [2] is 3.26 µM [rising, single point].

Regarding `CCCCc1nnc(NC(=O)CN2C(=O)C3CCCCC3C2=O)s1` (stereo not given), the cell number change is -27.9%. In addition, under setting [2], the AC50 is 1.3 µM [falling, full curve, poor fit].

As for `O=C(NN=C1CCCC1)c1ccc(O)cc1O`, the cell number change was 8.8%. The concentration at half-maximal activity (AC50) under setting [2] was 29.1 µM [rising, single point].

As for `Cc1ccc(-c2nnc(SCC(=O)N3CCCC3)o2)cc1C`, the cell number change was found to be 124%. Also, the AC50 under setting [1] is 10.3 µM [rising, partial curve]. In addition, the half-maximal activity concentration (AC50) under setting [2] was 29.1 µM [rising, partial curve].

`CC(=O)C(Cc1ccccc1)NC(=O)CN(C)Cc1ccccc1Cl` (stereo not given): the cell number change is -0.806%. The concentration at half-maximal activity (AC50) under setting [2] was 29.1 µM [falling, partial curve, poor fit].

Take `Cc1ccc(NC(=O)N2CCN(c3ccccn3)CC2)cc1`: the cell number change came out at 32.6%. Moreover, the concentration at half-maximal activity (AC50) under setting [1] is 10.3 µM [rising, single point]. The AC50 under setting [2] is 5.8 µM [rising, single point].

For `O=C(Nc1ccc2c(c1)CCCN2C(=O)c1ccccc1)c1ccccc1Br`, the cell number change is -11.8%. Besides, the AC50 under setting [1] is 4.11 µM [rising, single point].

With `Cc1ccc(S(=O)(=O)n2cc(-c3ccccc3)c3ccccc32)cc1`, the cell number change is -30.9%. Also, the AC50 under setting [1] was 29.1 µM [falling, single point]. Also, under setting [2], the AC50 is 25.9 µM [falling, single point].

Take `COc1ccc(N2C(=O)CC(N3CCC(O)(c4ccc(Br)cc4)CC3)C2=O)cc1` (stereo not given): the cell number change was determined as 15.9%. Besides, the AC50 under setting [1] was 0.00461 µM [falling, full curve, poor fit]. The AC50 under setting [2] was 1.46 µM [falling, partial curve].

In the case of `CC(=O)Nc1ccc(NC(=O)COc2ncnc3ccccc23)cc1`, the cell number change was -94%. The half-maximal activity concentration (AC50) under setting [1] was 0.517 µM [falling, full curve]. Also, the concentration at half-maximal activity (AC50) under setting [2] is 3.66 µM [falling, partial curve].

Consider `CC1CCN(c2ccc([N+](=O)[O-])cc2C(=O)NCC2CCCO2)CC1` (stereo not given), for which the cell number change is -26.3%.

For the molecule `CCOC(=O)CSc1nc(C)c(Oc2ccc(Cl)cc2Cl)c(=O)[nH]1`, the cell number change is -10.7%. In addition, the AC50 under setting [2] was 3.26 µM [falling, full curve].

With `CCOc1ccc(C(=O)NC2CCN(C(=O)Nc3ccccc3OC)CC2)cc1`, the cell number change was -49%. Under setting [1], the AC50 is 23.1 µM [falling, partial curve]. The concentration at half-maximal activity (AC50) under setting [2] was 20.6 µM [falling, partial curve].

With `COc1ccc2c(C)cc(C)nc2n1`, the cell number change was 13.3%. Besides, under setting [2], the AC50 was 1.3 µM [rising, full curve, poor fit].

Regarding `COc1ccc(C)cc1NC(=O)CN(C)C1CCCCC1`, the half-maximal activity concentration (AC50) under setting [2] is 0.13 µM [rising, full curve, poor fit].

As for `C=CCN1C(=O)/C(=C\C=C2\N(C)c3ccccc3C2(C)C)SC1=S`, the cell number change is -30.9%. Further, under setting [1], the AC50 is 0.92 µM [falling, full curve]. In addition, the half-maximal activity concentration (AC50) under setting [2] is 1.3 µM [falling, full curve].

`COCCn1nnnc1C(c1cccc(C#N)c1)N1CCCCCC1` (stereo not given): the cell number change amounted to 0.352%.

In the case of `CCn1c(CNC(=O)c2ccccc2F)nnc1SCC(=O)Nc1nncs1`, the cell number change came to 2.56%. Also, the concentration at half-maximal activity (AC50) under setting [2] was 2.31 µM [falling, full curve].

On to `NC(=O)c1ccc2nc(NC(=O)c3ccc(N)cc3)sc2c1`, for which the cell number change amounted to 44.4%. Also, the AC50 under setting [1] is 29.1 µM [rising, single point]. Also, under setting [2], the AC50 was 29.1 µM [rising, single point].

On to `CCOC(=O)c1ccc(NC(=O)CCCN2C(=O)NC3(CCCC3)C2=O)cc1`, for which the cell number change turned out to be 43.7%. The half-maximal activity concentration (AC50) under setting [1] is 3.26 µM [rising, partial curve]. The concentration at half-maximal activity (AC50) under setting [2] is 7.31 µM [rising, partial curve].

`Cc1cnc(NC(=O)CSc2ccc(Cl)cc2)s1`: the cell number change was found to be 61.1%. Also, the AC50 under setting [1] was 7.31 µM [rising, partial curve].

Take `CCCCCC(=O)N/N=C(\C)c1ccc(NC(=O)c2ccco2)cc1`: the cell number change was 26.3%.

On to `Cc1cc(C)n2c(SCC(=O)NC3CCCCC3C)nnc2n1` (stereo not given), for which the cell number change was found to be 61.2%. Also, the AC50 under setting [1] is 0.0058 µM [rising, full curve, poor fit].

On to `Cc1noc(C)c1COc1cccc(C(=O)Nc2ccc(OCc3ccccc3)cc2)c1`, for which the cell number change is -106%. Moreover, the half-maximal activity concentration (AC50) under setting [1] is 16.4 µM [falling, partial curve].

`CC(CC(=O)OCC(=O)Nc1ccc2[nH]c(=O)[nH]c2c1)c1ccccc1` (stereo not given): the cell number change is -13.7%. In addition, under setting [2], the AC50 is 29.1 µM [rising, partial curve, poor fit].

As for `Fc1ccccc1OCCCN1CCOCC1`, the cell number change was -44.8%. In addition, under setting [1], the AC50 is 1.03 µM [falling, partial curve]. Further, the AC50 under setting [2] was 6.51 µM [falling, single point].

With `COc1cccc2c(Nc3ccccc3C)cc(C)nc12`, the cell number change was -24.1%. Also, under setting [2], the AC50 is 29.1 µM [falling, single point].

As to `Cn1nc(C(F)(F)F)c2cc(C(=O)Nc3ccc(Cl)cc3)sc21`, the cell number change was -16.2%. In addition, the half-maximal activity concentration (AC50) under setting [1] was 0.0326 µM [rising, full curve, poor fit].

Consider `Cc1ccccc1NC(=O)CC1c2ccccc2CC(C)(C)N1C` (stereo not given), for which the cell number change was -21.9%. Also, the AC50 under setting [2] is 0.92 µM [falling, full curve].

As to `CC(C)Nc1nc(NC(C)C)nc(OCCOC(=O)Nc2ccccc2)n1`, the cell number change came out at 16.3%. For the same molecule, under setting [2], the AC50 was 2.31 µM [rising, partial curve].

In the case of `Oc1ccc(-c2[nH]ncc2-c2cnn(-c3ccccc3)c2)c(O)c1`, the cell number change was 37.3%. The concentration at half-maximal activity (AC50) under setting [1] is 6.51 µM [rising, full curve, poor fit]. For the same molecule, the half-maximal activity concentration (AC50) under setting [2] was 0.411 µM [falling, single point].

For the molecule `Cc1ccc(-c2nn(-c3ccccc3)cc2C(=O)NCCCN2CCOCC2)cc1`, the cell number change is -19.9%. Further, the AC50 under setting [1] was 0.82 µM [falling, partial curve, poor fit].

For the molecule `Oc1ccc(Cl)cc1C=Nc1ccccc1Br`, the cell number change is -13.2%. The AC50 under setting [1] was 2.06 µM [rising, partial curve, poor fit]. Under setting [2], the AC50 was 2.59 µM [rising, partial curve, poor fit].

On to `Cc1c(NC(=O)CSc2ccc3ccccc3n2)c(=O)n(-c2ccccc2)n1C`, for which the cell number change is -4.79%.

Turning to `Cc1nn2c(-c3cccc(NC(=O)CSc4nc5ccccc5o4)c3)nnc2c2ccccc12`, the cell number change is -106%.

In the case of `COc1ccccc1C(=O)COC(=O)c1c(-c2ccccc2)noc1C`, the cell number change was 13.2%. For the same molecule, the concentration at half-maximal activity (AC50) under setting [1] is 0.146 µM [rising, full curve, poor fit]. The AC50 under setting [2] is 0.116 µM [rising, full curve, poor fit].

Regarding `COc1ccccc1CC(=O)N1CCN(S(=O)(=O)c2cccs2)CC1`, the cell number change was found to be 28.6%. The AC50 under setting [1] was 0.291 µM [rising, full curve, poor fit]. The half-maximal activity concentration (AC50) under setting [2] was 6.51 µM [rising, single point].

Turning to `Cc1ccc2occ(/C=N/NC(=O)c3ccccc3C)c(=O)c2c1`, the cell number change turned out to be 1.88%.

On to `CN(c1ccc(Cl)cc1)c1cc(=O)n(C)c2ccccc12`, for which the cell number change was -18.2%.

Take `O=c1cc(NCc2ccccc2)nc2ccccn12`: the cell number change came out at 138%. Also, the AC50 under setting [1] is 0.164 µM [rising, full curve, poor fit]. Further, under setting [2], the concentration at half-maximal activity (AC50) was 0.13 µM [rising, single point].

For `COc1cccc(NC(=O)COc2ccccc2C(N)=O)c1`, the cell number change is 144%. In addition, the AC50 under setting [1] is 20.6 µM [rising, partial curve]. In addition, under setting [2], the half-maximal activity concentration (AC50) was 14.6 µM [rising, partial curve].

Regarding `COc1ccc(S(=O)(=O)N2CCC(Nc3ccccc3Cl)CC2)cc1`, the cell number change was -0.289%. In addition, the AC50 under setting [2] is 0.103 µM [falling, full curve, poor fit].

With `CCn1nc(NS(=O)(=O)c2ccccc2)c2cc3ccccc3nc21`, the cell number change was -14.7%. Under setting [2], the AC50 was 0.58 µM [falling, single point].

Take `Cc1ccc(Nc2nnc(SCC(=O)NCCN3C(=O)CSC3=O)s2)cc1C`: the cell number change was -19.9%. Also, the AC50 under setting [2] was 10.3 µM [falling, partial curve].

With `Cc1ccnc(NC(=O)COc2ccccc2[N+](=O)[O-])c1`, the cell number change was found to be 22%. For the same molecule, under setting [1], the half-maximal activity concentration (AC50) was 0.92 µM [falling, full curve, poor fit]. Besides, under setting [2], the AC50 was 0.731 µM [falling, single point].

In the case of `CCC(C)NC(=O)CC(c1ccccc1)c1cc(C)ccc1O` (stereo not given), the cell number change amounted to 9.93%. Under setting [2], the concentration at half-maximal activity (AC50) is 6.51 µM [falling, partial curve, poor fit].

`O=C1CCN(CCc2ccccc2)CCN1[C@H](CSc1ccccc1)c1ccccc1`: the cell number change is 4.19%.

For `O=C1c2ccccc2C(=O)N1CCc1csc(-c2cccc(Cl)c2)n1`, the AC50 by setting is: under setting [1], 2.59 µM [rising, partial curve]; under setting [2], 2.06 µM [rising, partial curve].

For `Cc1ccc(S(=O)(=O)N2CCN(CC(=O)NC(C)c3ccccc3)CC2)cc1` (stereo not given), the cell number change was found to be 1.57%.

For `Cc1nc2c(C(=O)Nc3ccc(N4CCCC(O)C4)cc3)snc2c(=O)[nH]1` (stereo not given), the cell number change was -22.9%. The AC50 under setting [2] is 1.46 µM [falling, partial curve].
